Here are results for two sequences from paper doi:10.1101/2024.03.19.585677.

This data set concerns the target PSB15 WT (Xanthomonas phage phiLf-UK) (UniProt Q8P905). Kind of data set: EMSA.

For at least one entry, the source does not settle the construct or the ends of the probe. A negative result means that nothing was seen under these conditions.

Take AAAAAAAAAAAAAAAAAAAAAAAAA [poly(A)25]: the binding result is recorded as “no binding”.

For the sequence TTTTTTTTTTTTTTTTTTTTTTTTT [poly(T)25], the binding result is given as “no binding”.
